Data set [1] deals with EPO-encoding mRNAs (EPO mRNA). Briefly: Detection of short byproducts by denaturing Urea-PAGE. The conditions noted are these: EPO m1Ψ-mRNAs. It counts as biochemical.
Data set [2] relates to EPO-encoding mRNAs (EPO mRNA). In words: In vitro transcription RNA yield with trinucleotide cap analogs (MEGAscript T7). The class given is biochemical. The following applies: for RNA yield by cap concentration: cap used in the range of 3-6 mM (1, 3, 6, 9, 12 mM tested).

Here are results for 3 compounds from patent US20260109727A1, “RNA CONSTRUCTS AND USES THEREOF” (BioNTech SE, priority 2022, published 2026).

Turning to `COC1C(OP(=O)(O)OC[C@H]2O[C@@H](c3cn(C)c(=O)[nH]c3=O)C(O)C2O)[C@@H](COP(=O)(O)OP(=O)([O-])OP(=O)(O)OC[C@H]2O[C@@H](n3c[n+](C)c4c(O)nc(N)nc43)C(O)C2OC)O[C@H]1n1cnc2c(N)ncnc21` (some centres unmarked) [I′-6, m^7G(^3′-OMe)pppA(2′-OMe)pm^1Ψ], in data set [1], the “amount of short contaminants” value was “minimal amount”.
With “(m2^7,3′-O)Gppp(m^2′-O)ApG [CC413, reference compound]”, the “amount of short contaminants” value in data set [1] is “minimal amount”.
In turn, `COC1C(OP(=O)([O-])OC[C@H]2O[C@@H](n3ccc(=O)[nH]c3=O)C(O)C2O)[C@@H](COP(=O)(O)OP(=O)(O)OP(=O)(O)OC[C@H]2O[C@@H](n3c[n+](C)c4c(O)nc(N)nc43)C(O)C2OC)O[C@H]1n1cnc2c(N)ncnc21` (some centres unmarked) [I′-1, m^7G(^3′-OMe)pppA(2′-OMe)pU] had an RNA yield in data set [2] (EPO mRNA, AUAGU transcriptional start site) of 64 μg/Unit. Further, the “RNA yield by cap concentration” value in data set [2] is “high yield”; in data set [2] (listed as (m2^7,3′-O)Gppp(m^2′-O)ApU) it was “High yield”.
